Measurements reported in PubChem BioAssay AID1259259 (Sanger Institute, 2017)
Aim: 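Kinome siRNA search for kinases essential alone or combined with trametinib, cetuximab or BYL719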 (primary screen). System: SW1463 human colorectal cancer cells. Reagents: siRNA pool against human genes. Treatment: DMSO vehicle, or one anchor drug: BYL719 at 1 µM, cetuximab at 5 µg/ml, or trametinib at 10 nM. Measured: 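Viability relative to control pool 2 (non-targeting) averaged over replicates, robust z-score for knock-down with no drug, and for each anchor drug the mean synergy score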. Reading the numbers: robust z-score, knock-down alone: higher = more viable cells after knock-down; viability, knock-down alone: higher = more viable cells; synergy score with BYL719 and synergy score with cetuximab and synergy score with trametinib: higher = stronger synergy (synthetic lethal) with drug. Active means: 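a robust z-score under -3 for knock-down with no drug marks the gene as essential, meaning viability loss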. Calls: active = essential: viability loss from knock-down alone; inactive = no change from knock-down alone.
The whole screen tested 794 reagents; below is a random part of them. 9 of them (1.1%) were called active. 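Calls rest on knock-down alone, not drug synergy; viability values seem capped at 1.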 The record does not give: the amount of reagent, the time to read-out.

gene symbol	PubChem SID	robust z-score, knock-down alone	viability, knock-down alone (fraction of control)	synergy score with BYL719	synergy score with cetuximab	synergy score with trametinib	call
CUL1 (cullin 1)	SID134310265	-0.266	0.911	-0.0106	-0.107	-0.119	inactive
CDK11B (cyclin dependent kinase 11B)	SID152152958	0.667	0.97	0.0233	0.0328	-0.0612	inactive
AURKC (aurora kinase C)	SID152150186	1.13	1	0.00797	-0.0272	-0.0326	inactive
PRKCI (protein kinase C iota)	SID152150879	-0.366	0.904	-0.0566	0.0888	-0.0394	inactive
LIMK1 (LIM domain kinase 1)	SID135621436	-0.585	0.89	-0.0695	0.064	0.116	inactive
ABL2 (ABL proto-oncogene 2, non-receptor tyrosine kinase)	SID152153611	0.0098	0.928	-0.00287	-0.0703	0.117	inactive
CAMK1G (calcium/calmodulin dependent protein kinase IG)	SID56478930	-0.0342	0.925	-0.0607	0.078	-0.105	inactive
TAF1L (TATA-box binding protein associated factor 1 like)	SID152155360	0.767	0.977	-0.0231	0.0254	0.0214	inactive
CAMK1 (calcium/calmodulin dependent protein kinase I)	SID56478929	-1.57	0.827	-0.107	0.128	0.0366	inactive
KIT (KIT proto-oncogene, receptor tyrosine kinase)	SID152151885	0.897	0.985	-0.0147	-0.0416	-0.0469	inactive
SMC1A (structural maintenance of chromosomes 1A)	SID134311995	-0.614	0.888	0.0309	0.11	0.25	inactive
AK5 (adenylate kinase 5)	SID56478914	-1.17	0.852	-0.148	-0.119	-0.176	inactive
PANK3 (pantothenate kinase 3)	SID56479122	0.962	0.989	-0.0106	-0.0375	0.00929	inactive
CDK9 (cyclin dependent kinase 9)	SID152156235	-0.73	0.881	-0.00361	0.154	0.00944	inactive
PRKCD (protein kinase C delta)	SID56478673	0.108	0.935	0.101	0.191	-0.00149	inactive
EGFR (epidermal growth factor receptor)	SID135620613	-1.13	0.855	0.0096	0.00655	0.126	inactive
BRSK2 (BR serine/threonine kinase 2)	SID152155603	-0.091	0.922	-0.0217	-0.0156	-0.0671	inactive
RAD21 (RAD21 cohesin complex component)	SID134311994	1.13	1	0.077	0.0662	-0.0326	inactive
CDK7 (cyclin dependent kinase 7)	SID152150057	1.13	1	0.0563	0.149	0.165	inactive
PRKAG2 (protein kinase AMP-activated non-catalytic subunit gamma 2)	SID135621825	0.67	0.971	-0.0171	0.0793	-0.0177	inactive
DAPK3 (death associated protein kinase 3)	SID56478935	-0.241	0.912	0.218	0.217	0.135	inactive
MAP3K5 (mitogen-activated protein kinase kinase kinase 5)	SID56478697	-1.11	0.857	-0.0543	0.0576	-0.0885	inactive
NRAS (NRAS proto-oncogene, GTPase)	SID134310164	1.13	1	0.061	-0.0272	-0.0326	inactive
CKS1B (CDC28 protein kinase regulatory subunit 1B)	SID56478807	-0.102	0.921	-0.0789	0.104	-0.109	inactive
CREBBP (CREB binding lysine acetyltransferase)	SID152156768	-0.682	0.884	0.0486	0.116	0.169	inactive
CKMT2 (creatine kinase, mitochondrial 2)	SID152154085	0.243	0.943	0.0818	0.201	0.0594	inactive
UHMK1 (U2AF homology motif kinase 1)	SID152150381	-1.01	0.863	-0.0134	0.0245	0.11	inactive
SBK1 (SH3 domain binding kinase 1)	SID152154198	-0.315	0.907	-0.0926	-0.0388	0.0997	inactive
DYRK4 (dual specificity tyrosine phosphorylation regulated kinase 4)	SID56478859	-1.89	0.806	-0.0162	0.105	0.0997	inactive
MAPK15 (mitogen-activated protein kinase 15)	SID152151405	1.13	1	0	-0.0272	-0.0326	inactive
BCOR (BCL6 corepressor)	SID135620845	-1.81	0.811	-0.163	-0.0186	-0.0574	inactive
SRGAP3 (SLIT-ROBO Rho GTPase activating protein 3)	SID152151814	1.13	1	0	-0.0272	-0.0326	inactive
CLK4 (CDC like kinase 4)	SID56478876	1.04	0.994	0.112	-0.0328	0.0141	inactive
INSRR (insulin receptor related receptor)	SID56479015	0.852	0.982	0.0285	0.184	0.132	inactive
STK35 (serine/threonine kinase 35)	SID135620978	-0.59	0.89	-0.0518	-0.0418	0.0356	inactive
ROR2 (ROR family WNT receptor 2)	SID56478550	-0.707	0.882	-0.05	-0.00672	0.0947	inactive
DLG4 (discs large MAGUK scaffold protein 4)	SID152149566	0.831	0.981	-0.00138	-0.0265	0.0629	inactive
TRIB3 (tribbles pseudokinase 3)	SID56478723	-0.132	0.919	0.0153	0.126	-0.0638	inactive
SKAP1 (src kinase associated phosphoprotein 1)	SID152154182	1.13	1	0	0.119	-0.00471	inactive
EEF2K (eukaryotic elongation factor 2 kinase)	SID152154873	-1.8	0.812	-0.000769	0.103	0.0653	inactive
MYH10 (myosin heavy chain 10)	SID134325581	-0.444	0.899	-0.101	-0.0289	0.0134	inactive
GOLGA5 (golgin A5)	SID134315128	0.124	0.936	-0.00263	-0.0694	-0.0369	inactive
MAST4	SID135625002	0.577	0.965	-0.0169	0.0928	-0.0668	inactive
ITSN1 (intersectin 1)	SID135621555	1.13	1	0	-0.0272	0.0859	inactive
PIK3C2A	SID152154179	-2.27	0.782	-0.00994	0.193	-0.037	inactive
PAPSS1 (3'-phosphoadenosine 5'-phosphosulfate synthase 1)	SID56479195	0.151	0.937	-0.0483	0.0325	-0.00365	inactive
FGFR2 (fibroblast growth factor receptor 2)	SID152155469	0.662	0.97	-0.0217	-0.0199	-0.0615	inactive
RNASEL (ribonuclease L)	SID56478962	1.13	1	0.0215	-0.0272	-0.0326	inactive
WNK1 (WNK lysine deficient protein kinase 1)	SID152148140	1.13	1	0.0102	-0.0272	-0.0326	inactive
WNK2 (WNK lysine deficient protein kinase 2)	SID56479037	1.13	1	0	0.0718	-0.0326	inactive
MAP3K10 (mitogen-activated protein kinase kinase kinase 10)	SID56478692	0.309	0.947	-0.0525	0.192	0.0608	inactive
UCK2 (uridine-cytidine kinase 2)	SID56478981	1.13	1	0.071	0.0203	0.0298	inactive
CSNK1A1 (casein kinase 1 alpha 1)	SID152148946	0.859	0.983	-0.0172	0.145	-0.0492	inactive
PIP5K1B (phosphatidylinositol-4-phosphate 5-kinase type 1 beta)	SID152154468	0.155	0.938	0.037	0.0867	0.0316	inactive
STK32C (serine/threonine kinase 32C)	SID56478811	0.667	0.97	-0.0295	0.0299	0.00748	inactive
TRIB1 (tribbles pseudokinase 1)	SID56478720	1.13	1	0.011	-0.0272	-0.00879	inactive
CSNK1G3 (casein kinase 1 gamma 3)	SID152152817	0.281	0.946	-0.0305	-0.0801	0.0459	inactive
AMER1 (APC membrane recruitment protein 1)	SID135623077	0.758	0.976	0.0573	0.169	0.0883	inactive
MYO3B (myosin IIIB)	SID152152883	-0.575	0.891	-0.00292	-0.0189	-0.0286	inactive
ATRX (ATRX chromatin remodeler)	SID152156576	0.602	0.966	0.0111	-0.0581	-0.0221	inactive
CDK17 (cyclin dependent kinase 17)	SID56478886	1.13	1	0	0.0243	-0.0326	inactive
DSTYK (dual serine/threonine and tyrosine protein kinase)	SID152147164	0.58	0.965	0.0121	0.0219	0.262	inactive
STK25 (serine/threonine kinase 25)	SID135620899	0.072	0.932	0.0509	-0.0931	0.119	inactive

5 successive records already listed, for reference:
gene symbol	PubChem SID	robust z-score, knock-down alone	viability, knock-down alone (fraction of control)	synergy score with BYL719	synergy score with cetuximab	synergy score with trametinib	call
ROR2 (ROR family WNT receptor 2)	SID56478550	-0.707	0.882	-0.05	-0.00672	0.0947	inactive
DLG4 (discs large MAGUK scaffold protein 4)	SID152149566	0.831	0.981	-0.00138	-0.0265	0.0629	inactive
TRIB3 (tribbles pseudokinase 3)	SID56478723	-0.132	0.919	0.0153	0.126	-0.0638	inactive
SKAP1 (src kinase associated phosphoprotein 1)	SID152154182	1.13	1	0	0.119	-0.00471	inactive
EEF2K (eukaryotic elongation factor 2 kinase)	SID152154873	-1.8	0.812	-0.000769	0.103	0.0653	inactive
